Results reported in PMC6101293.
Results are given in words; binding and its absence hold for the method and conditions named. In cells and extracts the contact can be indirect. Some results given as binding are weak or reduced against the parent protein; the word gives no strength.

The chains behind the UniProt entries cited, without tags or fusion partners.
UniProt P07384: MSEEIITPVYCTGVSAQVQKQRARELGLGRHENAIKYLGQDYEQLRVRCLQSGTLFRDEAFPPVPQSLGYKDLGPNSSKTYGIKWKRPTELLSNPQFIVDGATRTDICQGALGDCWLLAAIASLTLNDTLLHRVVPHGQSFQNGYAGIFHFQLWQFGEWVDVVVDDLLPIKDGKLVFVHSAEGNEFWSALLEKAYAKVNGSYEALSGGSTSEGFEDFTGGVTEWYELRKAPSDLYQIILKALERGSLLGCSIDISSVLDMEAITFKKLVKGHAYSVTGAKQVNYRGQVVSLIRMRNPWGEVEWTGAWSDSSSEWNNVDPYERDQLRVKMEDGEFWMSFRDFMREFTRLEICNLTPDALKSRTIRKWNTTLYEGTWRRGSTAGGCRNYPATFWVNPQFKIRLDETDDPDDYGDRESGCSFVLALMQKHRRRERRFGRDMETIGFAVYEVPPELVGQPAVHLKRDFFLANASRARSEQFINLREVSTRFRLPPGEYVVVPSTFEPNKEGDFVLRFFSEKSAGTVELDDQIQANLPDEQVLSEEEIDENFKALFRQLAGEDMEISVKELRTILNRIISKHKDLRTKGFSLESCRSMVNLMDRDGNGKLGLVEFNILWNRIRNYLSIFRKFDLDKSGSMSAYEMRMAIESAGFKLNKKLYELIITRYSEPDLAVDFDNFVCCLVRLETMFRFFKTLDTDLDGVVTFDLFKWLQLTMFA
UniProt P21359: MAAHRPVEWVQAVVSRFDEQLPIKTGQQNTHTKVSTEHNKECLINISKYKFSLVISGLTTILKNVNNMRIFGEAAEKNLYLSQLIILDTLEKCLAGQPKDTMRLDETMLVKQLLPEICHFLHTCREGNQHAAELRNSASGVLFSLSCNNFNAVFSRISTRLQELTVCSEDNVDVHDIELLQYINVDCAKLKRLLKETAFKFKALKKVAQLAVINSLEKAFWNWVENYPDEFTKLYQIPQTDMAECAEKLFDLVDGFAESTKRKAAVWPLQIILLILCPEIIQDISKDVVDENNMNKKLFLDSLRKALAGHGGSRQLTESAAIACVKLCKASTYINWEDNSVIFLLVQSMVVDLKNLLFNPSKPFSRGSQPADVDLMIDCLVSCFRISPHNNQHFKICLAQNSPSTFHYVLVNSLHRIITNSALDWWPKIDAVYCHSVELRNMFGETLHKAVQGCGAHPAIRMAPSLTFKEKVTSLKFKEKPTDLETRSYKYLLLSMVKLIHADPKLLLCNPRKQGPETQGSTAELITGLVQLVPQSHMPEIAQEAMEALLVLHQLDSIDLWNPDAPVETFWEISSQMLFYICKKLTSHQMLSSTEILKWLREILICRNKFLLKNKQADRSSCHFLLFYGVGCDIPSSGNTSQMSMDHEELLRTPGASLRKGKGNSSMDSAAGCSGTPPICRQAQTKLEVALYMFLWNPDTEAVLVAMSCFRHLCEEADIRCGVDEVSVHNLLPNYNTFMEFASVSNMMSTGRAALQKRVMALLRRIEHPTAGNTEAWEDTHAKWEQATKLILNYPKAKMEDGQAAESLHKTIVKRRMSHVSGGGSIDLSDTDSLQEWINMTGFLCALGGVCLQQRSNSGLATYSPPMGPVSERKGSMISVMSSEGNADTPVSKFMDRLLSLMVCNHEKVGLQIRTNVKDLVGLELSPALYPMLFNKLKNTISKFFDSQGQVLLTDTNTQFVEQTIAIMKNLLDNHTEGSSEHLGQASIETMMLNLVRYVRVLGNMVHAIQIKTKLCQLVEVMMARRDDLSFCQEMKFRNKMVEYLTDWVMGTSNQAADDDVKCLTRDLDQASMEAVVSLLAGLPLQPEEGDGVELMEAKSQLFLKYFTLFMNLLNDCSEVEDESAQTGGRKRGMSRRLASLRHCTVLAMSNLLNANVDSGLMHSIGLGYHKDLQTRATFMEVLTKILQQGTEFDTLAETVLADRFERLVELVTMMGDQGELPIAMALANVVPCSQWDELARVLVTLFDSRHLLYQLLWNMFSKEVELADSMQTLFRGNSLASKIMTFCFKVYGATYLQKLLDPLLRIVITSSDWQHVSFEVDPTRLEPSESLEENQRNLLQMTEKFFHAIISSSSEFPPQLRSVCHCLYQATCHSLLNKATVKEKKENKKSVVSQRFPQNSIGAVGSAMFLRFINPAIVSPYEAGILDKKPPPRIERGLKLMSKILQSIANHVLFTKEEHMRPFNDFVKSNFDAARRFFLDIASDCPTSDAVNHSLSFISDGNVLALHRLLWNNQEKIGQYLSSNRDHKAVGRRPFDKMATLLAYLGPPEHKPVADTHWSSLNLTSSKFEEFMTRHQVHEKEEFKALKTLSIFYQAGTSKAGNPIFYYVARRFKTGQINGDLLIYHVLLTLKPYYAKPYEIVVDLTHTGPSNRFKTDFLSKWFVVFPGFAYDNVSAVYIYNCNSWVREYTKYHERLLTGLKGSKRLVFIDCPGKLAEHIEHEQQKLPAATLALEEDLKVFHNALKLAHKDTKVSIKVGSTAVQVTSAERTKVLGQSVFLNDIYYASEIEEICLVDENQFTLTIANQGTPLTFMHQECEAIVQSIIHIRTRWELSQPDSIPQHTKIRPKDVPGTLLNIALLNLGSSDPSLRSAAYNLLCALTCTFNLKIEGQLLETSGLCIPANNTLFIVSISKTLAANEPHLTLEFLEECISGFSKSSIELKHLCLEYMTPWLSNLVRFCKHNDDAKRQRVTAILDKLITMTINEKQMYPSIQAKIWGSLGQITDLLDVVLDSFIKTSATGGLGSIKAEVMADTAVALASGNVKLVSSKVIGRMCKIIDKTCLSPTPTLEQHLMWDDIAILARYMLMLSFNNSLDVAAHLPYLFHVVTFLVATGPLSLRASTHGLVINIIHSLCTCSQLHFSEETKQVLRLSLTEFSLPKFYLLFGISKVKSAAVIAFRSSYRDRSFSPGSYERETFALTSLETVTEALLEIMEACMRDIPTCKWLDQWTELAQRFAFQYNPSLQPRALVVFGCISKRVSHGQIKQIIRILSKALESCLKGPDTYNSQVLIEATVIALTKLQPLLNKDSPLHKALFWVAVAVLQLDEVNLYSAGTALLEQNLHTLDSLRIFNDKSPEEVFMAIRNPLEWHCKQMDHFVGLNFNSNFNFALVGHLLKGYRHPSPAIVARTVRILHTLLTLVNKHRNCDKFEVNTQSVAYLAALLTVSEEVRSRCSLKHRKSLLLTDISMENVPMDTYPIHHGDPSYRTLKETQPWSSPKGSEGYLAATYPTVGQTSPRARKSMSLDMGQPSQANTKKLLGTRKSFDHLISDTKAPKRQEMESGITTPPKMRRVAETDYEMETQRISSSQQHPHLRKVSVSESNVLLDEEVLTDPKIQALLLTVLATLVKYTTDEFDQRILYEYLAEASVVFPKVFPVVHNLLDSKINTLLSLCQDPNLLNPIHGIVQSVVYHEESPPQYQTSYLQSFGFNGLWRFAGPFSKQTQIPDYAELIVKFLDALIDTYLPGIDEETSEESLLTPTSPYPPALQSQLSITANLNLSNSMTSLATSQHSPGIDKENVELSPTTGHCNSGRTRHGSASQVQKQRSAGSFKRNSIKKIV

Target: Calpain1 (CAPN1), large catalytic (80 kDa) subunit, endogenous (human (endogenous in A375 and 74T)) (UniProt P07384)
Assay: co-IP; CAPN1 immunoprecipitated with anti-CAPN1 (C0355, Sigma) from A375 cells stably overexpressing NF1, immunoblot with anti-NF1; control mouse IgG1

NF1 tagged with Flag-HA at the N-terminus (pHAGE-NF1), stably overexpressed (from UniProt P21359 1-2839)
binding: binds
